# Source: the supplement of paper PMC8728848
# Some of the results follow.
# Tests used:
# Assay in all cases: glycan array binding signal (z-score within array); higher = stronger binding
# Details in all cases: glycan notation: IUPAC condensed, linker removed
# [1] = molecular target: Fuc(a1-2)Gal(b1-4)[Fuc(a1-3)]GlcNAc
# Outline: (§1)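 The binding signal is a Z-score computed within each array. Data were drawn from 3228 arrays in the Consortium for Functional Glycomics database, restricted to those with a known protein sequence. Scores were averaged over arrays of the same protein sequence at different concentrations or buffers, and over linkers, and negative values can be taken as non-binding.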
# [2] = molecular target: Fuc(a1-2)Gal(b1-4)[Fuc(a1-3)]GlcNAc(b1-2)Man(a1-3)[Fuc(a1-2)Gal(b1-4)[Fuc(a1-3)]GlcNAc(b1-2)Man(a1-6)]Man(b1-4)GlcNAc(b1-4)GlcNAc
# Outline: as §1
# [3] = molecular target: Fuc(a1-2)Gal(b1-4)[Fuc(a1-3)]GlcNAc(b1-2)[Fuc(a1-2)Gal(b1-4)[Fuc(a1-3)]GlcNAc(b1-4)]Man(a1-3)[Fuc(a1-2)Gal(b1-4)[Fuc(a1-3)]GlcNAc(b1-2)Man(a1-6)]Man(b1-4)GlcNAc(b1-4)GlcNAc
# Outline: as §1
# [4] = molecular target: Fuc(a1-2)Gal(b1-4)[Fuc(a1-3)]GlcNAc(b1-3)Gal(b1-4)[Fuc(a1-3)]GlcNAc
# Outline: as §1
# [5] = molecular target: Fuc(a1-2)Gal(b1-4)[Fuc(a1-3)]GlcNAc(b1-3)Gal(b1-4)[Fuc(a1-3)]GlcNAc(b1-3)Gal(b1-4)[Fuc(a1-3)]GlcNAc
# Outline: as §1
# [6] = molecular target: Fuc(a1-2)Gal(b1-4)[Fuc(a1-3)]GlcNAc(b1-3)GalNAc
# Outline: as §1
# Fuc(a1-2)Gal6S(b1-4)Glc = molecular target: Fuc(a1-2)Gal6S(b1-4)Glc
# Outline: as §1
# [7] = molecular target: Fuc(a1-2)Gal6S(b1-4)Glc6S
# Outline: as §1
# [8] = molecular target: Fuc(a1-2)Gal6S(b1-4)GlcNAc
# Outline: as §1
# Fuc(a1-2)[Gal(a1-3)]Gal = molecular target: Fuc(a1-2)[Gal(a1-3)]Gal
# Outline: as §1
# [9] = molecular target: Fuc(a1-2)[Gal(a1-3)]Gal(b1-3)GalNAc
# Outline: as §1
# [10] = molecular target: Fuc(a1-2)[Gal(a1-3)]Gal(b1-3)GlcNAc
# Outline: as §1
# [11] = molecular target: Fuc(a1-2)[Gal(a1-3)]Gal(b1-3)GlcNAc(b1-2)Man(a1-3)[Fuc(a1-2)[Gal(a1-3)]Gal(b1-3)GlcNAc(b1-2)Man(a1-6)]Man(b1-4)GlcNAc(b1-4)GlcNAc
# Outline: as §1
# [12] = molecular target: Fuc(a1-2)[Gal(a1-3)]Gal(b1-3)GlcNAc(b1-2)Man(a1-3)[Fuc(a1-2)[Gal(a1-3)]Gal(b1-3)GlcNAc(b1-2)Man(a1-6)]Man(b1-4)GlcNAc(b1-4)[Fuc(a1-6)]GlcNAc
# Outline: as §1
# [13] = molecular target: Fuc(a1-2)[Gal(a1-3)]Gal(b1-3)GlcNAc(b1-3)GalNAc
# Outline: as §1
# [14] = molecular target: Fuc(a1-2)[Gal(a1-3)]Gal(b1-4)Glc
# Outline: as §1
# [15] = molecular target: Fuc(a1-2)[Gal(a1-3)]Gal(b1-4)GlcNAc
# Outline: as §1
# [16] = molecular target: Fuc(a1-2)[Gal(a1-3)]Gal(b1-4)GlcNAc(b1-2)Man(a1-3)[Fuc(a1-2)[Gal(a1-3)]Gal(b1-4)GlcNAc(b1-2)Man(a1-6)]Man(b1-4)GlcNAc(b1-4)GlcNAc
# Outline: as §1
# [17] = molecular target: Fuc(a1-2)[Gal(a1-3)]Gal(b1-4)GlcNAc(b1-2)Man(a1-3)[Fuc(a1-2)[Gal(a1-3)]Gal(b1-4)GlcNAc(b1-2)Man(a1-6)]Man(b1-4)GlcNAc(b1-4)[Fuc(a1-6)]GlcNAc
# Outline: as §1
# [18] = molecular target: Fuc(a1-2)[Gal(a1-3)]Gal(b1-4)GlcNAc(b1-3)GalNAc
# Outline: as §1
# [19] = molecular target: Fuc(a1-2)[Gal(a1-3)]Gal(b1-4)[Fuc(a1-3)]Glc
# Outline: as §1
# [20] = molecular target: Fuc(a1-2)[Gal(a1-3)]Gal(b1-4)[Fuc(a1-3)]GlcNAc
# Outline: as §1
# [21] = molecular target: Fuc(a1-2)[Gal(a1-3)]Gal(b1-4)[Fuc(a1-3)]GlcNAc(b1-3)GalNAc
# Outline: as §1
# [22] = molecular target: Fuc(a1-2)[Gal(a1-4)]Gal(b1-4)GlcNAc
# Outline: as §1
# [23] = molecular target: Fuc(a1-2)[GalNAc(a1-3)]Gal
# Outline: as §1
# [24] = molecular target: Fuc(a1-2)[GalNAc(a1-3)]Gal(b1-3)GalNAc(a1-3)[Fuc(a1-2)]Gal(b1-4)GlcNAc
# Outline: as §1
# [25] = molecular target: Fuc(a1-2)[GalNAc(a1-3)]Gal(b1-3)GlcNAc
# Outline: as §1
# [26] = molecular target: Fuc(a1-2)[GalNAc(a1-3)]Gal(b1-3)GlcNAc(b1-2)Man(a1-3)[Fuc(a1-2)[GalNAc(a1-3)]Gal(b1-3)GlcNAc(b1-2)Man(a1-6)]Man(b1-4)GlcNAc(b1-4)GlcNAc
# Outline: as §1
# [27] = molecular target: Fuc(a1-2)[GalNAc(a1-3)]Gal(b1-3)GlcNAc(b1-2)Man(a1-3)[Fuc(a1-2)[GalNAc(a1-3)]Gal(b1-3)GlcNAc(b1-2)Man(a1-6)]Man(b1-4)GlcNAc(b1-4)[Fuc(a1-6)]GlcNAc
# Outline: as §1
# [28] = molecular target: Fuc(a1-2)[GalNAc(a1-3)]Gal(b1-3)GlcNAc(b1-3)GalNAc
# Outline: as §1
binder,measurement,setting,value
"MFG-E8 (Homo sapiens), Q08431 (protein) MPRPRLLAALCGALLCAPSLLVALDICSKNPCHNGGLCEEISQEVRGDVFPSYTCTCLKGYAGNHCETKCVEPLGLENGNIANSQIAASSVRVTFLGLQHWVPELARLNRAGMVNAWTPSSNDDNPWIQVNLLRRMWVTGVVTQGASRLASHEYLKAFKVAYSLNGHEFDFIHDVNKKHKEFVGNWNKNAVHVNLFETPVEAQYVRLYPTSCHTACTLRFELLGCELNGCANPLGLKNNSIPDKQITASSSYKTWGLHLFSWNPSYARLDKQGNFNAWVAGSYGNDQWLQVDLGSSKEVTGIITQGARNFGSVQFVASYKVAYSNDSANWTEYQDPRTGSSKIFPGNWDNHSHKKNLFETPILARYVRILPVAWHNRIALRLELLGC",glycan array binding signal (z-score),[1],-0.378
same,glycan array binding signal (z-score),[2],2.88
same,glycan array binding signal (z-score),[3],2.94
same,glycan array binding signal (z-score),[4],-0.446
same,glycan array binding signal (z-score),[5],0.4
same,glycan array binding signal (z-score),[6],1.79
same,glycan array binding signal (z-score),Fuc(a1-2)Gal6S(b1-4)Glc,0.012
same,glycan array binding signal (z-score),[7],-0.22
same,glycan array binding signal (z-score),[8],-0.745
same,glycan array binding signal (z-score),Fuc(a1-2)[Gal(a1-3)]Gal,-0.258
same,glycan array binding signal (z-score),[9],-0.43
same,glycan array binding signal (z-score),[10],-0.12
same,glycan array binding signal (z-score),[11],-0.131
same,glycan array binding signal (z-score),[12],-0.115
same,glycan array binding signal (z-score),[13],0.636
same,glycan array binding signal (z-score),[14],-0.686
same,glycan array binding signal (z-score),[15],-0.715
same,glycan array binding signal (z-score),[16],1.34
same,glycan array binding signal (z-score),[17],-0.651
same,glycan array binding signal (z-score),[18],-0.553
same,glycan array binding signal (z-score),[19],-0.687
same,glycan array binding signal (z-score),[20],-0.307
same,glycan array binding signal (z-score),[21],1.66
same,glycan array binding signal (z-score),[22],-0.762
same,glycan array binding signal (z-score),[23],-0.746
same,glycan array binding signal (z-score),[24],-0.024
same,glycan array binding signal (z-score),[25],-0.635
same,glycan array binding signal (z-score),[26],1.38
same,glycan array binding signal (z-score),[27],0.357
same,glycan array binding signal (z-score),[28],0.634

# Another view of part of the listing above.
binder	measurement	setting	value
MFG-E8 (Homo sapiens), Q08431 (protein) MPRPRLLAALCGALLCAPSLLVALDICSKNPCHNGGLCEEISQEVRGDVFPSYTCTCLKGYAGNHCETKCVEPLGLENGNIANSQIAASSVRVTFLGLQHWVPELARLNRAGMVNAWTPSSNDDNPWIQVNLLRRMWVTGVVTQGASRLASHEYLKAFKVAYSLNGHEFDFIHDVNKKHKEFVGNWNKNAVHVNLFETPVEAQYVRLYPTSCHTACTLRFELLGCELNGCANPLGLKNNSIPDKQITASSSYKTWGLHLFSWNPSYARLDKQGNFNAWVAGSYGNDQWLQVDLGSSKEVTGIITQGARNFGSVQFVASYKVAYSNDSANWTEYQDPRTGSSKIFPGNWDNHSHKKNLFETPILARYVRILPVAWHNRIALRLELLGC	glycan array binding signal (z-score)	[12]	-0.115
same	glycan array binding signal (z-score)	[13]	0.636
